PMC13623127
Results are given in words; binding and its absence hold for the method and conditions named.

T1: RANKL, TNF ligand superfamily member 11, soluble form (human)
T1 sequence: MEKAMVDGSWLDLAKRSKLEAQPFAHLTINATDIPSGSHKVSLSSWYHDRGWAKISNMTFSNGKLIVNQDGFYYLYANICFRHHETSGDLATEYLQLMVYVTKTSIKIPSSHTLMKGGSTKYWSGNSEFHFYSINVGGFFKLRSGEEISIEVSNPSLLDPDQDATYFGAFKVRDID

B1: S100A16 (protein, UniProt Q96FQ6 1-103)
chain: MSDCYTELEKAVIVLVENFYKYVSKYSLVKNKISKSSFREMLQKELNHMLSDTGNRKAADKLIQNLDANHDGRISFDEYWTLIGGITGPIAKLIHEQEQQSSS
B2: S100A15 (protein, UniProt Q86SG5 1-101)
chain: MSNTQAERSIIGMIDMFHKYTGRDGKIEKPSLLTMMKENFPNFLSACDKKGIHYLATVFEKKDKNEDKKIDFSEFLSLLGDIAADYHKQSHGAAPCSGGSQ
B3: S100A7 (protein, UniProt P31151 1-101)
chain: MSNTQAERSIIGMIDMFHKYTRRDDKIEKPSLLTMMKENFPNFLSACDKKGTNYLADVFEKKDKNEDKKIDFSEFLSLLGDIATDYHKQSHGAAPCSGGSQ
B4: S100A11 (protein, UniProt P31949 1-105)
chain: MAKISSPTETERCIESLIAVFQKYAGKDGYNYTLSKTEFLSFMNTELAAFTKNQKDPGVLDRMMKKLDTNSDGQLDFSEFLNLIGGLAMACHDSFLKAVPSQKRT
B5: S100A8 (protein, UniProt P05109 1-93)
chain: MLTELEKALNSIIDVYHKYSLIKGNFHAVYRDDLKKLLETECPQYIRKKGADVWFKELDINTDGAVNFQEFLILVIKMGVAAHKKSHEESHKE
B6: S100A12 (protein, UniProt P80511 1-92)
chain: MTKLEEHLEGIVNIFHQYSVRKGHFDTLSKGELKQLLTKELANTIKNIKDKAVIDEIFQGLDANQDEQVDFQEFISLVAIALKAAHYHTHKE
B7: S100B (protein, UniProt P04271 1-92)
chain: MSELEKAMVALIDVFHQYSGREGDKHKLKKSELKELINNELSHFLEEIKEQEVVDKVMETLDNDGDGECDFQEFMAFVAMVTTACHEFFEHE
B8: S100A9 (protein, UniProt P06702 1-114)
chain: MTCKMSQLERNIETIINTFHQYSVKLGHPDTLNQGEFKELVRKDLQNFLKKENKNEKVIEHIMEDLDTNADKQLSFEEFIMLMARLTWASHEKMHEGDEGPGHHHKPGLGEGTP
B9: S100A13 (protein, UniProt Q99584 1-98)
chain: MAAEPLTELEESIETVVTTFFTFARQEGRKDSLSVNEFKELVTQQLPHLLKDVGSLDEKMKSLDVNQDSELKFNEYWRLIGELAKEIRKKKDLKIRKK
B10: S100P (protein, UniProt P25815 1-95)
chain: MTELETAMGMIIDVFSRYSGSEGSTQTLTKGELKVLMEKELPGFLQSGKDKDAVDKLLKDLDANGDAQVDFSEFIVFVAAITSACHKYFEKAGLK
B11: S100A14 (protein, UniProt Q9HCY8 1-104)
chain: MGQCRSANAEDAQEFSDVERAIETLIKNFHQYSVEGGKETLTPSELRDLVTQQLPHLMPSNCGLEEKIANLGSCNDSKLEFRSFWELIGEAAKSVKLERPVRGH
B12: S100A5 (protein, UniProt P33763 1-92)
chain: METPLEKALTTMVTTFHKYSGREGSKLTLSRKELKELIKKELCLGEMKESSIDDLMKSLDKNSDQEIDFKEYSVFLTMLCMAYNDFFLEDNK
B13: S100Z (protein, UniProt Q8WXG8 1-99)
chain: MPTQLEMAMDTMIRIFHRYSGKERKRFKLSKGELKLLLQRELTEFLSCQKETQLVDKIVQDLDANKDNEVDFNEFVVMVAALTVACNDYFVEQLKKKGK
B14: S100A3 (protein, UniProt P33764 1-101)
chain: MARPLEQAVAAIVCTFQEYAGRCGDKYKLCQAELKELLQKELATWTPTEFRECDYNKFMSVLDTNKDCEVDFVEYVRSLACLCLYCHEYFKDCPSEPPCSQ
B15: S100A7L2 (protein, UniProt Q5SY68 1-101)
chain: MNIPLGEKVMLDIVAMFRQYSGDDGRMDMPGLVNLMKENFPNFLSGCEKSDMDYLSNALEKKDDNKDKKVNYSEFLSLLGDITIDHHKIMHGVAPCSGGSQ
B16: S100G (protein, UniProt P29377 1-79)
chain: MSTKKSPEELKRIFEKYAAKEGDPDQLSKDELKLLIQAEFPSLLKGPNTLDDLFQELDKNGDGEVSFEEFQVLVKKISQ

What was measured:
Test in all cases: SPR; TNFSF member immobilised by amine coupling on a ProteOn GLH chip, S100 protein as analyte; 25°C; 10 mM HEPES-NaOH, 150 mM NaCl, 0.05% TWEEN 20, 1 mM CaCl2, pH 7.4; both purified
[1] = biological target: BAFF, TNF ligand superfamily member 13B, soluble form (human)
[2] = biological target: T1, RANKL, TNF ligand superfamily member 11, soluble form (human)
[3] = biological target: FasL, TNF ligand superfamily member 6, soluble form (human)
[4] = biological target: OX40L, TNF ligand superfamily member 4, soluble form (human)
[5] = biological target: CD40L, TNF ligand superfamily member 5, soluble form (human)

Binder	binding [1]	binding [2]	binding [3]	binding [4]	binding [5]
B1	no binding (tested: analyte 62.5 nM to 16 μM)	no binding (tested: analyte 62.5 nM to 16 μM)	no binding (tested: analyte 62.5 nM to 16 μM)	no binding (tested: analyte 62.5 nM to 16 μM)	no binding (tested: analyte 62.5 nM to 16 μM)
B2	no binding (tested: analyte 62.5 nM to 16 μM)	no binding (tested: analyte 62.5 nM to 16 μM)	no binding (tested: analyte 62.5 nM to 16 μM)	no binding (tested: analyte 62.5 nM to 16 μM)	no binding (tested: analyte 62.5 nM to 16 μM)
B3	no binding (tested: analyte 62.5 nM to 16 μM)	no binding (tested: analyte 62.5 nM to 16 μM)	no binding (tested: analyte 62.5 nM to 16 μM)	no binding (tested: analyte 62.5 nM to 16 μM)	no binding (tested: analyte 62.5 nM to 16 μM)
B4	no binding (tested: analyte 62.5 nM to 16 μM)	no binding (tested: analyte 62.5 nM to 16 μM)	no binding (tested: analyte 62.5 nM to 16 μM)	no binding (tested: analyte 62.5 nM to 16 μM)	no binding (tested: analyte 62.5 nM to 16 μM)
B5	no binding (tested: analyte 62.5 nM to 16 μM)	no binding (tested: analyte 62.5 nM to 16 μM)	no binding (tested: analyte 62.5 nM to 16 μM)	no binding (tested: analyte 62.5 nM to 16 μM)	no binding (tested: analyte 62.5 nM to 16 μM)
B6	no binding (tested: analyte 62.5 nM to 16 μM)	no binding (tested: analyte 62.5 nM to 16 μM)	no binding (tested: analyte 62.5 nM to 16 μM)	no binding (tested: analyte 62.5 nM to 16 μM)	no binding (tested: analyte 62.5 nM to 16 μM)
B7	no binding (tested: analyte 62.5 nM to 16 μM)	no binding (tested: analyte 62.5 nM to 16 μM)	no binding (tested: analyte 62.5 nM to 16 μM)	no binding (tested: analyte 62.5 nM to 16 μM)	no binding (tested: analyte 62.5 nM to 16 μM)
B8	no binding (tested: analyte 62.5 nM to 16 μM)	no binding (tested: analyte 62.5 nM to 16 μM)	no binding (tested: analyte 62.5 nM to 16 μM)	no binding (tested: analyte 62.5 nM to 16 μM)	no binding (tested: analyte 62.5 nM to 16 μM)
B9	no binding (tested: analyte 62.5 nM to 16 μM)	no binding (tested: analyte 62.5 nM to 16 μM)	no binding (tested: analyte 62.5 nM to 16 μM)	no binding (tested: analyte 62.5 nM to 16 μM)	no binding (tested: analyte 62.5 nM to 16 μM)
B10	no binding (tested: analyte 62.5 nM to 16 μM)	no binding (tested: analyte 62.5 nM to 16 μM)	no binding (tested: analyte 62.5 nM to 16 μM)	no binding (tested: analyte 62.5 nM to 16 μM)	no binding (tested: analyte 62.5 nM to 16 μM)
B11	no binding (tested: analyte 62.5 nM to 16 μM)	no binding (tested: analyte 62.5 nM to 16 μM)	no binding (tested: analyte 62.5 nM to 16 μM)	no binding (tested: analyte 62.5 nM to 16 μM)	no binding (tested: analyte 62.5 nM to 16 μM)
B12	no binding (tested: analyte 62.5 nM to 16 μM)	no binding (tested: analyte 62.5 nM to 16 μM)	no binding (tested: analyte 62.5 nM to 16 μM)	no binding (tested: analyte 62.5 nM to 16 μM)	no binding (tested: analyte 62.5 nM to 16 μM)
B13	no binding (tested: analyte 62.5 nM to 16 μM)	no binding (tested: analyte 62.5 nM to 16 μM)	no binding (tested: analyte 62.5 nM to 16 μM)	no binding (tested: analyte 62.5 nM to 16 μM)	no binding (tested: analyte 62.5 nM to 16 μM)
B14	no binding (tested: analyte 62.5 nM to 16 μM)	no binding (tested: analyte 62.5 nM to 16 μM)	no binding (tested: analyte 62.5 nM to 16 μM)	no binding (tested: analyte 62.5 nM to 16 μM)	no binding (tested: analyte 62.5 nM to 16 μM)
B15	no binding (tested: analyte 62.5 nM to 16 μM)	no binding (tested: analyte 62.5 nM to 16 μM)	no binding (tested: analyte 62.5 nM to 16 μM)	no binding (tested: analyte 62.5 nM to 16 μM)	no binding (tested: analyte 62.5 nM to 16 μM)
B16	no binding (tested: analyte 62.5 nM to 16 μM)	no binding (tested: analyte 62.5 nM to 16 μM)	no binding (tested: analyte 62.5 nM to 16 μM)	no binding (tested: analyte 62.5 nM to 16 μM)	no binding (tested: analyte 62.5 nM to 16 μM)
